Data from patent publication US20170267778A1.
Results are given in words; binding and its absence hold for the method and conditions named. Some binding calls cover weakened binding; strength is not graded here.

By UniProt entry, the sequences of proteins in these tests, tags left out. Residues count along the entry.
UniProt P15941, residues 126-445: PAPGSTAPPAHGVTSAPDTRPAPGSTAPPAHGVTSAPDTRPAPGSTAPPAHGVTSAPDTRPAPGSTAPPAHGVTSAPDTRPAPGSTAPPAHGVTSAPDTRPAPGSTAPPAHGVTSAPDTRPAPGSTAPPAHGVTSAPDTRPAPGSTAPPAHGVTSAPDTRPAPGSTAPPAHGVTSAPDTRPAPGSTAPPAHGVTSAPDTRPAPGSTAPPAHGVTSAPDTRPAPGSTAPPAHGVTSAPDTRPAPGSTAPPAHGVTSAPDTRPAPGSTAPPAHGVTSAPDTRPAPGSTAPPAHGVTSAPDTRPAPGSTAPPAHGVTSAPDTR

Target: 16TR-MUC1-Tn (human) (UniProt P15941)
Assay: Tn-MUC1 binding ELISA (protocol 4)

B1: Ab6 (antibody, human IgG1, V domains shown)
VH: EVQLVESGAEVKKPGASVEVSCQASGYTFTDHAIHWVRQAPGQGLEWMGHFSPGNTDIKYNDKFKGRVTMTVDRSINTAYMELRRLRSDDTAVYYCKTSTFFFDYWGQGTMVTVSS
VL: DIVMTQSPLSLPVTPGEPASISCKSSQSLLNSGDQKNYLTWYLQKPGQSPQLLIYWASTRESGVPDRFSGSGSGTDFTLKISRVEAEDVGVYYCQNDYSYPLTFGGGTKVEIK
  binding: binds
